This is an account of results in PMC9197937.

Protein sequences, listed by entry. Tags and fused reporters are not part of them.
UniProt P11484: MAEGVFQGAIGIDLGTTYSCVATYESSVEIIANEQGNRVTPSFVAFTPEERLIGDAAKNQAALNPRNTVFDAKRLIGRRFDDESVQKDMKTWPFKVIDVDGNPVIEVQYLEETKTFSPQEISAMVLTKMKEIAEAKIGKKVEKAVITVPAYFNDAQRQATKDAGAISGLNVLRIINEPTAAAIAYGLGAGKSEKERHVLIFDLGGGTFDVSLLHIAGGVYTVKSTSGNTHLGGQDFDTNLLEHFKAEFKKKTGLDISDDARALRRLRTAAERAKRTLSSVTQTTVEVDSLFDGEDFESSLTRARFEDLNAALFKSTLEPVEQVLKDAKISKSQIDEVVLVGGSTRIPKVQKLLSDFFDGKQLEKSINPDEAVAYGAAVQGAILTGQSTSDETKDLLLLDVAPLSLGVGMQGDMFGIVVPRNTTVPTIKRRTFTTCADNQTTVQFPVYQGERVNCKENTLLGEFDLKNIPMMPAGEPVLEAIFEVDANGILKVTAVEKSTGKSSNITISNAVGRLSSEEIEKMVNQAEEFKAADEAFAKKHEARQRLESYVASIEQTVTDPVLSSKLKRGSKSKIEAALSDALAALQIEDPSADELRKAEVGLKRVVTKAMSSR

Results are given in words; binding and its absence hold for the method and conditions named. In cells and extracts the contact can be indirect. A yes stands for co-enrichment or nearness to the bait. Other partners may have been found. For part of these data: Tags and fused reporters may be left off the sequences shown.

Test [1] addresses T1, Strep-Pmt1 nascent chain stalled at the triple-proline motif (PPP construct) (S. cerevisiae) (UniProt P33775).
T1 sequence (chain, nascent chain-tRNA (NC-tRNA)): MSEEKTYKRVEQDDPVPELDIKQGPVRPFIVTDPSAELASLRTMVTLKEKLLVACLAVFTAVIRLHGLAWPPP
In words: affinity purification with mass spectrometry; RNCs captured by the Strep tag of the nascent chain on Strep-Tactin Sepharose, 4 °C, from crude ribosomal pellets of Δdom-PPP cells; endogenous factors found by SDS-PAGE and MS.

Test [2] has as its target T2, Zuo1 with a C-terminal 3X-FLAG tag (S. cerevisiae) (UniProt P32527).
T2 sequence: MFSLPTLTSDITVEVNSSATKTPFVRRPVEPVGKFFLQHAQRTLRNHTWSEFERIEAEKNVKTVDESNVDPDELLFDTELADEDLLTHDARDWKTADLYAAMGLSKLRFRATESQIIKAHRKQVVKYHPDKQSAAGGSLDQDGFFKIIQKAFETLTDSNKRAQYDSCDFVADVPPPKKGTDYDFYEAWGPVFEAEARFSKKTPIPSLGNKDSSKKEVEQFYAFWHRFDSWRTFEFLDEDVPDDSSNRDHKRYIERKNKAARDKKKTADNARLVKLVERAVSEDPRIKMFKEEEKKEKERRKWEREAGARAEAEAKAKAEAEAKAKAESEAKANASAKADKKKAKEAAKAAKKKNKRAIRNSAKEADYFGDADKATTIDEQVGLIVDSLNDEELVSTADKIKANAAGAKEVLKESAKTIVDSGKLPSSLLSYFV
In words: affinity purification with mass spectrometry; Zuo1-3X-FLAG captured from extracts of log-phase yeast on Anti-FLAG M2 Affinity Gel, 4 °C, 40 mM HEPES-KOH pH 7.5, 100 mM KCl, 10 mM MgCl2, eluted with flag peptides; SDS-PAGE bands and sample identified by MS; endogenous 80S-RAC complexes.

Test [3] addresses T1, Strep-Pmt1 nascent chain stalled at the triple-proline motif (PPP construct) (S. cerevisiae). In words: affinity purification with mass spectrometry; RNCs captured by the Strep tag of the nascent chain on Strep-Tactin Sepharose, 4 °C; crude ribosomal pellets of Δdom-PPP cells dissolved with 6.4 μM recombinant RAC, 40 mM HEPES-KOH pH 7.5, 100 mM KCl, 5 mM MgCl2, cycloheximide; SDS-PAGE and MS; only the binder purified.

Regarding “Ssb1 (endogenous) (from UniProt P11484 1-613)”, the binding result in test [1] and in test [2] was “binds” in each case.

B1: Zuo1 of recombinant RAC (protein, UniProt P32527 1-433)
chain: MFSLPTLTSDITVEVNSSATKTPFVRRPVEPVGKFFLQHAQRTLRNHTWSEFERIEAEKNVKTVDESNVDPDELLFDTELADEDLLTHDARDWKTADLYAAMGLSKLRFRATESQIIKAHRKQVVKYHPDKQSAAGGSLDQDGFFKIIQKAFETLTDSNKRAQYDSCDFVADVPPPKKGTDYDFYEAWGPVFEAEARFSKKTPIPSLGNKDSSKKEVEQFYAFWHRFDSWRTFEFLDEDVPDDSSNRDHKRYIERKNKAARDKKKTADNARLVKLVERAVSEDPRIKMFKEEEKKEKERRKWEREAGARAEAEAKAKAEAEAKAKAESEAKANASAKADKKKAKEAAKAAKKKNKRAIRNSAKEADYFGDADKATTIDEQVGLIVDSLNDEELVSTADKIKANAAGAKEVLKESAKTIVDSGKLPSSLLSYFV
As to B1, in test [3], the binding result is “binds”.
